Assay results published in publication PMC6354426.
Results are given in words; binding and its absence hold for the method and conditions named. In cells and extracts the contact can be indirect. These calls come from enrichment with a bait or labelling near it, and not all partners need be listed. Tags and fused reporters may be left off the sequences shown.

Sequences of proteins named here, by UniProt entry; tags and fusion partners are left off.
UniProt A0A061IGS6: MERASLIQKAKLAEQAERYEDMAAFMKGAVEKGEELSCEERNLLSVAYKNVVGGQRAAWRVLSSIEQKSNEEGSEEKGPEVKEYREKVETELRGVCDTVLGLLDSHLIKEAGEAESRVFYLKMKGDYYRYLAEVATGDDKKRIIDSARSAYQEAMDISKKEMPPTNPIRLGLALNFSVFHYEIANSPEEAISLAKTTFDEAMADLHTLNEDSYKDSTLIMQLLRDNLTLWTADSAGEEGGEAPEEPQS
UniProt A0A9J7JS88: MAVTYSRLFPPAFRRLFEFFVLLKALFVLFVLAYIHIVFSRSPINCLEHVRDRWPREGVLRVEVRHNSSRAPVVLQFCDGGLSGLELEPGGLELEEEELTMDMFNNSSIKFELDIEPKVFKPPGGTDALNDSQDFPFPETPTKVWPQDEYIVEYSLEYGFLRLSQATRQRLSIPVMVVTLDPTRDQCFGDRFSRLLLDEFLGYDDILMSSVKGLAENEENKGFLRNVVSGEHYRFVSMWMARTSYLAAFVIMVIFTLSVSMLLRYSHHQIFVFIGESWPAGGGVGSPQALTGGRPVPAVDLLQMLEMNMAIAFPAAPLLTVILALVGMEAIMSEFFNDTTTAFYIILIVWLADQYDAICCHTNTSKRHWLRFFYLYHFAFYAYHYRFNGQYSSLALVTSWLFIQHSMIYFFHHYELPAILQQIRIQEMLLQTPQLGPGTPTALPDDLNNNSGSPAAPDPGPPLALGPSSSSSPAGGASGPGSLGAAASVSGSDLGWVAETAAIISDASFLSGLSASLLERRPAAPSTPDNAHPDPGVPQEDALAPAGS

T1: adipocyte plasma membrane-associated protein APMAP1, Flag-tagged (human) (UniProt Q9HDC9)
T1 sequence: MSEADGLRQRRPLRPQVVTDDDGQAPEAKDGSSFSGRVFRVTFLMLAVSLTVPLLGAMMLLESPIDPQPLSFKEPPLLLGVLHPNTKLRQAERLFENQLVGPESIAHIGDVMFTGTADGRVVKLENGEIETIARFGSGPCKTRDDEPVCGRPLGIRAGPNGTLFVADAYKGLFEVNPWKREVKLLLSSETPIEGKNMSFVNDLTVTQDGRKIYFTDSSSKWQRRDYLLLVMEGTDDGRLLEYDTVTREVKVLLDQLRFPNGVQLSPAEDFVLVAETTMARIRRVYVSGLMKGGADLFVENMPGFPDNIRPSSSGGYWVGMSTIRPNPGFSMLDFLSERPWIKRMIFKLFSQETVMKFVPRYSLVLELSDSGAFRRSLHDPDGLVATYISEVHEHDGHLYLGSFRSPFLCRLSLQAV


Target: T1, adipocyte plasma membrane-associated protein APMAP1, Flag-tagged (human)
Assay: affinity purification with mass spectrometry; bicarbonate-washed membranes of CHO-APMAP1-Flag cells solubilised in 1% CHAPSO, diluted in 0.1% digitonin-TBS, bound to M2 anti-Flag affinity resin overnight, eluted with 0.2 mg/ml Flag peptides; Superdex 200 SEC in 0.1% digitonin-TBS; BN-PAGE bands CP1 to CP8 excised, in-gel trypsin digestion, LC-MS/MS; two independent experiments

binding | Molecule
binds | 14-3-3 protein sigma (from UniProt A0A061IGS6 1-248)
binds | arginase-1 (Chinese hamster (endogenous in CHO)) (enzyme)
binds | calnexin (Chinese hamster (endogenous in CHO))
binds | membralin (from UniProt A0A9J7JS88 1-548)
binds | nicastrin (Chinese hamster (endogenous in CHO))
binds | prostaglandin F2 receptor negative regulator (Chinese hamster (endogenous in CHO))
binds | reticulon-4 (Chinese hamster (endogenous in CHO))

Second part, the molecule before the results:

Molecule | binding
cation-independent mannose 6-phosphate receptor (Chinese hamster (endogenous in CHO)) | binds
clusterin (Chinese hamster (endogenous in CHO)) | binds
fetuin-A (Chinese hamster (endogenous in CHO)) | binds
serpinB3 (Chinese hamster (endogenous in CHO)) | binds
lysosome-associated membrane glycoprotein 1 (protein, UniProt P49129 22-407) ASALFVVKDSNGTACIMANFSASFFTIYETGHGSKNSTFELPSSAEVLNSNSSCGRENVSEPILTIAFGSGYLLTLNFTRNATRYSVQDMYFAYNLSDTQHFLNASNKGIHSVDSSTDIKADINKTYRCLSAIQVHMGNVTVTLSDATIQAYLLNSNFSKEETRCTQDGPSPTTVPPSPSPPLVPTNPTVIKYNVTGENGTCLLASMALQMNITYMKKDNMTVTRALNISPNDTASGSCSPHVVTLTVESKNSILDLKFGMNGSSSLFFLQEVRLNMTLPDANVSSLMASNQSLRALQATVGNSYKCNTEEHIFVTKEFSLNVFSVQVQAFKVESDRFGSVEECMQDGNNMLIPIAVGGALAGLVLIVLIAYLIGRKRSHAGYQTI | binds
